Measurements: article PMC13215203
Results are given in words; binding and its absence hold for the method and conditions named. Sequences can lack the tags named with a protein.

How the values were obtained:
[1] = biological target: T1, M6HH-tagged SPD-5 amino acids 1-113 (PRGB1), not phosphorylated (C. elegans) (UniProt P91349); assay: SEC-MALS; Superose 6 increase 10/300 or Superdex 200 increase 10/300 in 20 mM tris-HCl pH 7.5, 50 mM NaCl, 5 mM EGTA, 2 mM MgCl2, 1 mM DTT; 120 μl of ~2.0 mg/ml protein loaded; with or without PLK1 phosphorylation; both purified
T1 sequence: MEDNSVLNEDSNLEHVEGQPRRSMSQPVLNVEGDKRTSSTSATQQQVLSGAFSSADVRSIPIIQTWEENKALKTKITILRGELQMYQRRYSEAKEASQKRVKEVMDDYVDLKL

[2] = biological target: M6HH-tagged SPD-5 amino acids 1-113 (PRGB1), phosphorylated by PLK1 (C. elegans) (UniProt P91349); assay: as above
[3] = biological target: M6HH-tagged SPD-5 amino acids 1-200, not phosphorylated (C. elegans) (UniProt P91349); assay: as above
[4] = biological target: T2, M6HH-tagged SPD-5 amino acids 1-60, not phosphorylated (C. elegans) (UniProt P91349); assay: pull-down; MBP pull-down: purified SPD-5 fragments mixed (2.0 μM) with or without PLK1(T194D) in kinase buffer, then 75 nM each with anti-MBP antibody in lysis buffer 2 h at 4°C and protein A beads 1 h; M6HH-tagged fragment is the bait; immunoblot; both purified
T2 sequence: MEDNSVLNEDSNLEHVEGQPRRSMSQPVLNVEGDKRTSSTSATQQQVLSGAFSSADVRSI

[5] = biological target: T1, M6HH-tagged SPD-5 amino acids 1-113 (PRGB1), not phosphorylated (C. elegans); assay: as above

B1: M6HH-tagged SPD-5 amino acids 1-113 (PRGB1), not phosphorylated (domain or fragment, UniProt P91349 1-113)
chain: MEDNSVLNEDSNLEHVEGQPRRSMSQPVLNVEGDKRTSSTSATQQQVLSGAFSSADVRSIPIIQTWEENKALKTKITILRGELQMYQRRYSEAKEASQKRVKEVMDDYVDLKL
- binding [1]: no binding (tested: ~2.0 mg/ml loaded)

B2: M6HH-tagged SPD-5 amino acids 1-113 (PRGB1), phosphorylated by PLK1 (domain or fragment, UniProt P91349 1-113)
chain: MEDNSVLNEDSNLEHVEGQPRRSMSQPVLNVEGDKRTSSTSATQQQVLSGAFSSADVRSIPIIQTWEENKALKTKITILRGELQMYQRRYSEAKEASQKRVKEVMDDYVDLKL
modifications: phosphorylated in vitro by PLK1(T194D); candidate sites S5 and S11
- binding [2]: no binding (tested: ~2.0 mg/ml loaded)

B3: M6HH-tagged SPD-5 amino acids 1-200, not phosphorylated (domain or fragment, UniProt P91349 1-200)
chain: MEDNSVLNEDSNLEHVEGQPRRSMSQPVLNVEGDKRTSSTSATQQQVLSGAFSSADVRSIPIIQTWEENKALKTKITILRGELQMYQRRYSEAKEASQKRVKEVMDDYVDLKLGQENVQEKMEQYKLMEEDLLAMQSRIETSEDNFARQMKEFEAQKHAMEERIKELELSATDANNTTVGSFRGTLDDILKKNDPDFTLT
- binding [3]: no binding (tested: ~2.0 mg/ml loaded)

B4: untagged SPD-5 amino acids 101-473, not phosphorylated (domain or fragment, UniProt P91349 101-473)
chain: VKEVMDDYVDLKLGQENVQEKMEQYKLMEEDLLAMQSRIETSEDNFARQMKEFEAQKHAMEERIKELELSATDANNTTVGSFRGTLDDILKKNDPDFTLTSGYEERKINDLEAKLLSEIDKVAELEDHIQQLRQELDDQSARLADSENVRAQLEAATGQGILGAAGNAMVPNSTFMIGNGRESQTRDQLNYIDDLETKLADAKKENDKARQALVEYMNKCSKLEHEIRTMVKNSTFDSSSMLLGGQTSDELKIQIGKVNGELNVLRAENRELRIRCDQLTGGDGNLSISLGQSRLMAGIATNDVDSIGQGNETGGTSMRILPRESQLDDLEESKLPLMDTSSAVRNQQQFASMWEDFESVKDSLQNNHNDTLE
- binding [4]: no binding (tested: 75 nM)

B5: Halo-tagged SPD-5 amino acids 200-345, not phosphorylated (domain or fragment, UniProt P91349 200-345)
chain: TSGYEERKINDLEAKLLSEIDKVAELEDHIQQLRQELDDQSARLADSENVRAQLEAATGQGILGAAGNAMVPNSTFMIGNGRESQTRDQLNYIDDLETKLADAKKENDKARQALVEYMNKCSKLEHEIRTMVKNSTFDSSSMLLGG
- binding [5]: no binding (tested: 75 nM)
